The chains behind the UniProt entries cited, without tags or fusion partners.
UniProt Q92769: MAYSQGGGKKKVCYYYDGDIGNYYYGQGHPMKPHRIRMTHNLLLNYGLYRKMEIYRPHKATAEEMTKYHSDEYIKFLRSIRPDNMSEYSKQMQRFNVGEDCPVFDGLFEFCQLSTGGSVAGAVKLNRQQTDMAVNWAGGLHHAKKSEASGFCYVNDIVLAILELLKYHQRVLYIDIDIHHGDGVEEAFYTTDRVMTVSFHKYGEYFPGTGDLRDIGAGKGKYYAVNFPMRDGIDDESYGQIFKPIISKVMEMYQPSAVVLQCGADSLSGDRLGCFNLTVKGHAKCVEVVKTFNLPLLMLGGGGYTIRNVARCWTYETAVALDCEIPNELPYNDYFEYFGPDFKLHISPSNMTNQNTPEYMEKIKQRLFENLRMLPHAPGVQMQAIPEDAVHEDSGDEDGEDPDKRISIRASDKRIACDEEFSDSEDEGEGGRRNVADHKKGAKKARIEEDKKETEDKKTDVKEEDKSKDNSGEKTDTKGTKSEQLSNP
UniProt Q13547: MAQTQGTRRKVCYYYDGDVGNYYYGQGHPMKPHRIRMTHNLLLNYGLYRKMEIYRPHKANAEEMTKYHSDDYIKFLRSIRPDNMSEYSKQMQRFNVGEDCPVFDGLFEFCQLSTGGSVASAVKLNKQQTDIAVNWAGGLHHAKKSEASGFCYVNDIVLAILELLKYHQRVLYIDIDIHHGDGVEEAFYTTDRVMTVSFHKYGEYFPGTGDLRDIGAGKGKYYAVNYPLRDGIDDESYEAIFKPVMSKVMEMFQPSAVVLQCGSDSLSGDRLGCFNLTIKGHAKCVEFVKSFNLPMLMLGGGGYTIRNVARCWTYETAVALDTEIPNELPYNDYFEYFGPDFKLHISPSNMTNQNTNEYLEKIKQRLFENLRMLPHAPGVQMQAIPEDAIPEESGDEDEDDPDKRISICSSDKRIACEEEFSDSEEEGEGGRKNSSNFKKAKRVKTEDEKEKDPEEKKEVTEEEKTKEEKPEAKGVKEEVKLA

According to paper PMC3088716:

B1: endogenous Dnttip1 of HEK293 cells (protein, UniProt Q9H147 1-329)
chain: MGATGDAEQPRGPSGAERGGLELGDAGAAGQLVLTNPWNIMIKHRQVQRRGRRSQMTTSFTDPAISMDLLRAVLQPSINEEIQTVFNKYMKFFQKAALNVRDNVGEEVDAEQLIQEACRSCLEQAKLLFSDGEKVIPRLTHELPGIKRGRQAEEECAHRGSPLPKKRKGRPPGHILSSDRAAAGMVWKPKSCEPIRREGPKWDPARLNESTTFVLGSRANKALGMGGTRGRIYIKHPHLFKYAADPQDKHWLAEQHHMRATGGKMAYLLIEEDIRDLAASDDYRGCLDLKLEELKSFVLPSWMVEKMRKYMETLRTENEHRAVEAPPQT
B2: endogenous TRERF1 of HEK293 cells (protein, UniProt Q96PN7 1-1200)
chain: MGDQQLYKTNHVAHGSENLFYQQPPLGVHSGLNHNYGNAVTGGGMDAPQASPISPHFPQDTRDGLGLPVGSKNLGQMDTSRQGGWGSHAGPGNHVQLRGNLANSNMMWGAPAQAEPTDGYQYTYSQASEIRTQKLTSGVLHKLDSFTQVFANQNLRIQVNNMAQVLHTQSAVMDGAPDSALRQLLSQKPMEPPAPAIPSRYQQVPQQPHPGFTGGLSKPALQVGQHPTQGHLYYDYQQPLAQVPVQGGQPLQAPQMLSQHMQQMQQHQYYPPQQQQQAGQQRISMQEIQTQPQQIRPSQPQPPPQQQQPQQLQLQQRQGSMQIPQYYQPQPMMQHLQEQQQQQMHLQPPSYHRDPHQYTPEQAHTVQLIPLGSMSQYYYQEPQQPYSHPLYQQSHLSQHQQREDSQLKTYSSDRQAQAMLSSHGDLGPPDTGMGDPASSDLTRVSSTLPHRPLLSPSGIHLNNMGPQHQQLSPSAMWPQMHLPDGRAQPGSPESSGQPKGAFGEQFDAKNKLTCSICLKEFKNLPALNGHMRSHGGMRASPNLKQEEGEKVLPPQPQPPLPPPPPPPPPPQLPPEAESLTPMVMPVSVPVKLLPPKPSSQGFTNSTVAAPSARDKPASSMSDDEMPVLEIPRKHQPSVPKAEEPLKTVQEKKKFRHRPEPLFIPPPPSYNPNPAASYSGATLYQSQLRSPRVLGDHLLLDPTHELPPYTPPPMLSPVRQGSGLFSNVLISGHGPGAHPQLPLTPLTPTPRVLLCRSNSIDGSNVTVTPGPGEQTVDVEPRINIGLRFQAEIPELQDISALAQDTHKATLVWKPWPELENHDLQQRVENLLNLCCSSALPGGGTNSEFALHSLFEAKGDVMVALEMLLLRKPVRLKCHPLANYHYAGSDKWTSLERKLFNKALATYSKDFIFVQKMVKSKTVAQCVEYYYTWKKIMRLGRKHRTRLAEIIDDCVTSEEEEELEEEEEEDPEEDRKSTKEEESEVPKSPEPPPVPVLAPTEGPPLQALGQPSGSFICEMPNCGAVFSSRQALNGHARIHGGTNQVTKARGAIPSGKQKPGGTQSGYCSVKSSPSHSTTSGETDPTTIFPCKECGKVFFKIKSRNAHMKTHRQQEEQQRQKAQKAAFAAEMAATIERTTGPVGAPGLLPLDQLSLIKPIKDVDILDDDVVQQLGGVMEEAEVVDTDLLLDDQDSVLLQGDAEL

Tests used:
[1] = target: T1, FLAG-tagged ZNF541 (mouse) (UniProt Q0GGX2); experiment: affinity purification with mass spectrometry; immunoprecipitation from HEK293 cell lines stably expressing FLAG-tagged ZNF541 or Dnttip1, followed by MudPIT; 3 independent biological samples
T1 sequence: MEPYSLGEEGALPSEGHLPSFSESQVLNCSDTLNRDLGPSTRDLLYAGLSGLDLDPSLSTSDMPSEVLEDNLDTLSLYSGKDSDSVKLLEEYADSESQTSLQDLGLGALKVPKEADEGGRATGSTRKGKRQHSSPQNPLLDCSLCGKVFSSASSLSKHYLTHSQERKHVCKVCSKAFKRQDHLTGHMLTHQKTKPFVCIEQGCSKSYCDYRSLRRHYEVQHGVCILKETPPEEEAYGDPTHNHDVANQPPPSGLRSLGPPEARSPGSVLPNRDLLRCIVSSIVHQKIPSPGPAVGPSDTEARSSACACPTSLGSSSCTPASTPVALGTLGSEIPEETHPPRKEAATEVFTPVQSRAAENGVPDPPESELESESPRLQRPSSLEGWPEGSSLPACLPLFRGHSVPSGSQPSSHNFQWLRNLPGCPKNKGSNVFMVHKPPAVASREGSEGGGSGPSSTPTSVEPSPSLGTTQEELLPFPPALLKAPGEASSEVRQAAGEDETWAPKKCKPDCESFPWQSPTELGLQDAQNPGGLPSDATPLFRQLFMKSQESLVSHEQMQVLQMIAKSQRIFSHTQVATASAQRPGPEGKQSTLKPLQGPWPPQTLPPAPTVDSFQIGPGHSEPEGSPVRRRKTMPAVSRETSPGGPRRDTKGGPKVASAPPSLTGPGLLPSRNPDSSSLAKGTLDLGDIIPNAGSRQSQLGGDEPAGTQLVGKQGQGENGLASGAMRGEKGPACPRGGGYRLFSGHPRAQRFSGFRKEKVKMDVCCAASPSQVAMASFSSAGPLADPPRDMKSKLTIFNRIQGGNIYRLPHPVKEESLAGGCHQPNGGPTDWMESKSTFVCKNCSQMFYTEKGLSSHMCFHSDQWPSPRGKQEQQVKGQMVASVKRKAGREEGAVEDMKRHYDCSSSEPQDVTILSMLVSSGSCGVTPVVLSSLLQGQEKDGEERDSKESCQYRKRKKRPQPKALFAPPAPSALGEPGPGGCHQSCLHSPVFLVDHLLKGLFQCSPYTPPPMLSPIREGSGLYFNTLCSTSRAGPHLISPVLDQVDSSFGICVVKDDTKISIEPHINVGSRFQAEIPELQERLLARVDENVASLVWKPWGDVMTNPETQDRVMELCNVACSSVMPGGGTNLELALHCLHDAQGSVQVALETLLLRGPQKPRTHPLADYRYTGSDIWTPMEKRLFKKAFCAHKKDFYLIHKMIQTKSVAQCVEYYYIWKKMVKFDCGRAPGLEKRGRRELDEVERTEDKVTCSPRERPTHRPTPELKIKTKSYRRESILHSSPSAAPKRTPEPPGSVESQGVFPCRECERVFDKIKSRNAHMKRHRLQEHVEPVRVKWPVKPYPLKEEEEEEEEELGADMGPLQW

[2] = target: T2, FLAG-tagged Dnttip1 (mouse) (UniProt Q99LB0); experiment: as above
T2 sequence: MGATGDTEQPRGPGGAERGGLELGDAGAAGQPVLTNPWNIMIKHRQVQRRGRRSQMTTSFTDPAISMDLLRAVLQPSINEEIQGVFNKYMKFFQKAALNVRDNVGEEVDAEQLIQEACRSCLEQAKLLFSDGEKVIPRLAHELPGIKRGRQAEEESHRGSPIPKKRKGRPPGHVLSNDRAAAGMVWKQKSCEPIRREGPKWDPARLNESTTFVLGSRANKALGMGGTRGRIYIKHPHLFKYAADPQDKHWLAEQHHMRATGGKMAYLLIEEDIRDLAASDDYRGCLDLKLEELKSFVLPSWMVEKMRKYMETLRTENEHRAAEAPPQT

binding [1] | binding [2] | Molecule
binds | binds | histone deacetylase 2 (HDAC2), endogenous in HEK293 cells (from UniProt Q92769 1-488) (enzyme)
binds |  | histone deacetylase 1 (HDAC1), endogenous in HEK293 cells (from UniProt Q13547 1-482) (enzyme)
binds |  | B1
 | binds | B2

Results are given in words; binding and its absence hold for the method and conditions named. Binding seen in cells or lysates may run through a third protein. These calls come from enrichment with a bait or labelling near it, and not all partners need be listed. Where a sequence is shown, tags or fusion partners need not be part of it.
